Experimental data published in the supplement of paper PMC10849652.
This is one part of the list. Residues, ends and D or L forms follow the SMILES beside them. *: point of attachment. Cbz = O=C(OCc1ccccc1)*

Protein sequences, listed by entry. Tags and fused reporters are not part of them. Lines headed by an entry give the natural chain unless they say otherwise; changes in a name come on top.
UniProt P09622, whole entry, looked up: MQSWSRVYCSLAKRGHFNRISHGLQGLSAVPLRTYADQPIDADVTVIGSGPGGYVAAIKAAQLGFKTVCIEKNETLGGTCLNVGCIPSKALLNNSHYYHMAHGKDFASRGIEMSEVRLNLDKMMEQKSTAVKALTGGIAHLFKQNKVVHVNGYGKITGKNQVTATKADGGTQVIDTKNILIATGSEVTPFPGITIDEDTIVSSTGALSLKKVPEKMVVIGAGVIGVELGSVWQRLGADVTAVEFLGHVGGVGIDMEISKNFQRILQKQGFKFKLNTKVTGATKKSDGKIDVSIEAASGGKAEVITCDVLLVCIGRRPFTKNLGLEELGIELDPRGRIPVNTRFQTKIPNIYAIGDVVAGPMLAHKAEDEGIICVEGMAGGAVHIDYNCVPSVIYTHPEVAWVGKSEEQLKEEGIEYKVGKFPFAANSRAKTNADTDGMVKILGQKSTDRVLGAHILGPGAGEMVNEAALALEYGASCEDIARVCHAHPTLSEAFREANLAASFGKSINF
UniProt Q8N5I4: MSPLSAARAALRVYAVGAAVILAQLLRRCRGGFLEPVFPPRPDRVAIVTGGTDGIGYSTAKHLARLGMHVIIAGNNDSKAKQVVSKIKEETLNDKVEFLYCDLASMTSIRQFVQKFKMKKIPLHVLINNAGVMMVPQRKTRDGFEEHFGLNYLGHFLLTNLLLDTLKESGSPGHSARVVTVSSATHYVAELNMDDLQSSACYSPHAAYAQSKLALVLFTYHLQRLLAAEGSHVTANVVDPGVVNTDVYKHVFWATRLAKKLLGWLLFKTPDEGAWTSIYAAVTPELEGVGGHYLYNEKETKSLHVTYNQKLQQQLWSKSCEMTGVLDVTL
UniProt O00273: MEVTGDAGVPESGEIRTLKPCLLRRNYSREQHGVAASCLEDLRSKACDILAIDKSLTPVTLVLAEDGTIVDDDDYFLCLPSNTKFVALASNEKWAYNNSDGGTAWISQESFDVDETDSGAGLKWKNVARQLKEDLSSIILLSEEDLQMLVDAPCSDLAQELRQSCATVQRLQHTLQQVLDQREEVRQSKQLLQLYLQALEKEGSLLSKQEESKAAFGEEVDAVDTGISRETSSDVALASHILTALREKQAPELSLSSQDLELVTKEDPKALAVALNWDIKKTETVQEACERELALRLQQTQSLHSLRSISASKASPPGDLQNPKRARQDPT
UniProt Q9UHL0: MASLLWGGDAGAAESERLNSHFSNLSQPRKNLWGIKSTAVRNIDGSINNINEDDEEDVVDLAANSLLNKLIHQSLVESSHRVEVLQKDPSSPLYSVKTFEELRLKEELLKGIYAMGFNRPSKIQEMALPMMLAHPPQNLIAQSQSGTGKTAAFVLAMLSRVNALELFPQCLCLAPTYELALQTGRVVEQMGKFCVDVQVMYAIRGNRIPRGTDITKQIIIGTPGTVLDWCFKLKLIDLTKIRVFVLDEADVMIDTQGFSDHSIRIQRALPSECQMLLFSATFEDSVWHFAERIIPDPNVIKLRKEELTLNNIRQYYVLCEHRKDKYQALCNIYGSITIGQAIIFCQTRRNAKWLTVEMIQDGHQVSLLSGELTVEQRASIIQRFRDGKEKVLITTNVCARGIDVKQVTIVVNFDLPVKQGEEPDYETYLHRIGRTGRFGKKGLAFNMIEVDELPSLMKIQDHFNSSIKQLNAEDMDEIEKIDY
UniProt Q6IAN0: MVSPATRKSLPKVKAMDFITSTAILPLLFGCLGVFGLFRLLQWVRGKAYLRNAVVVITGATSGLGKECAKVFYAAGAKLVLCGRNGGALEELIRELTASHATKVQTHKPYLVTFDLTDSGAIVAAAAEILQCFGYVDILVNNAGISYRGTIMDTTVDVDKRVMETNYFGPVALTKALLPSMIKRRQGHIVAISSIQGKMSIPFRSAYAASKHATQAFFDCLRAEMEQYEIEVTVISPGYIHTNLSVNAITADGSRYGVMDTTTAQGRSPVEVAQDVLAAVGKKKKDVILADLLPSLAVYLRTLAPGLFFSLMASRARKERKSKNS
UniProt Q7L014: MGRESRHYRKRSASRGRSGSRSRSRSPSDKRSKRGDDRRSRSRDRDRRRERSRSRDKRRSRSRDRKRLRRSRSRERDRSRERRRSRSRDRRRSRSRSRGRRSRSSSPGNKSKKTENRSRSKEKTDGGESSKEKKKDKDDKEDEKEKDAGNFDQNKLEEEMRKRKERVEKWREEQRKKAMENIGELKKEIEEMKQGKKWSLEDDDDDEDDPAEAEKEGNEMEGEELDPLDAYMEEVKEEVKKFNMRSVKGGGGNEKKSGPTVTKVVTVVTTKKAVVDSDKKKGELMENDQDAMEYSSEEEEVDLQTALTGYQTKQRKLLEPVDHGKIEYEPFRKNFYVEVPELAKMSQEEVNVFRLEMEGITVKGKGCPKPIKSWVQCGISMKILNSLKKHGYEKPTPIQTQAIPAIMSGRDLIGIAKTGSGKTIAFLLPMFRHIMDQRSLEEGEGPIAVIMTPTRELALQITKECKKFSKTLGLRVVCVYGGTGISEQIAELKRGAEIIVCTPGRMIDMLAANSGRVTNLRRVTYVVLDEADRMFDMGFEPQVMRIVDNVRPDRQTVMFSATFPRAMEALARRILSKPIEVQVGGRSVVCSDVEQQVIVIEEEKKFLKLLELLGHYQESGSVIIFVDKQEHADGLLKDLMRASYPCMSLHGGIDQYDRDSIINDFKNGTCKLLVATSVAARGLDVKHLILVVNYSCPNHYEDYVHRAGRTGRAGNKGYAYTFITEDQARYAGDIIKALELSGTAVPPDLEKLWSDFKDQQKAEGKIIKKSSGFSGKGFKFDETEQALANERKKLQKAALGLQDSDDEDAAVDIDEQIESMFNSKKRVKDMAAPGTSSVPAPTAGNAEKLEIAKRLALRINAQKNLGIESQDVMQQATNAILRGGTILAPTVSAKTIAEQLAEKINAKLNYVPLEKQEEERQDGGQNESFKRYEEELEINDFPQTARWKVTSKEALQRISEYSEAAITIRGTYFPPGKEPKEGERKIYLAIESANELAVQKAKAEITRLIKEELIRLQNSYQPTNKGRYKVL
UniProt P52429: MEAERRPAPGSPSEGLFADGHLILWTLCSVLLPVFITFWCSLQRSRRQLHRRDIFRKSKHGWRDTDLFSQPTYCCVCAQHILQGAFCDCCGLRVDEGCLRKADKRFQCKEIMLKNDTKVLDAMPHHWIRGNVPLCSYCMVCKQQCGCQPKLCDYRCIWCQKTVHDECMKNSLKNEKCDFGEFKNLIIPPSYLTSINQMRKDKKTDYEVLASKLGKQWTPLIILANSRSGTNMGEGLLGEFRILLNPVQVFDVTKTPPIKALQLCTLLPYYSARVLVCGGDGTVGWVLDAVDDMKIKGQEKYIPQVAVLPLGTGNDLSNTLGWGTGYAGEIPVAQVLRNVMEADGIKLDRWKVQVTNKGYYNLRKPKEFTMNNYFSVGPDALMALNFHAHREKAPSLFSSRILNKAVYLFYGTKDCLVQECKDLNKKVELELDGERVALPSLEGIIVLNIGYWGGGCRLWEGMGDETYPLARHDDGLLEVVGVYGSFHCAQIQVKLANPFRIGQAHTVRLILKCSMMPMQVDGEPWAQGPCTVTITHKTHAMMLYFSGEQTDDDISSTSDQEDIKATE
UniProt Q9GZP9: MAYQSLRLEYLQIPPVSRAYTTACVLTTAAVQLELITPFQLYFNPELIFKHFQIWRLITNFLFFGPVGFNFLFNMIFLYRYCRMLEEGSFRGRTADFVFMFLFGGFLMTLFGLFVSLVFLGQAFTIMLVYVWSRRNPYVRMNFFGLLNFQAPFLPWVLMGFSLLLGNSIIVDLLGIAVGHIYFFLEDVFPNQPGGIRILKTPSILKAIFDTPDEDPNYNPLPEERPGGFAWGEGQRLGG
UniProt Q8IX18: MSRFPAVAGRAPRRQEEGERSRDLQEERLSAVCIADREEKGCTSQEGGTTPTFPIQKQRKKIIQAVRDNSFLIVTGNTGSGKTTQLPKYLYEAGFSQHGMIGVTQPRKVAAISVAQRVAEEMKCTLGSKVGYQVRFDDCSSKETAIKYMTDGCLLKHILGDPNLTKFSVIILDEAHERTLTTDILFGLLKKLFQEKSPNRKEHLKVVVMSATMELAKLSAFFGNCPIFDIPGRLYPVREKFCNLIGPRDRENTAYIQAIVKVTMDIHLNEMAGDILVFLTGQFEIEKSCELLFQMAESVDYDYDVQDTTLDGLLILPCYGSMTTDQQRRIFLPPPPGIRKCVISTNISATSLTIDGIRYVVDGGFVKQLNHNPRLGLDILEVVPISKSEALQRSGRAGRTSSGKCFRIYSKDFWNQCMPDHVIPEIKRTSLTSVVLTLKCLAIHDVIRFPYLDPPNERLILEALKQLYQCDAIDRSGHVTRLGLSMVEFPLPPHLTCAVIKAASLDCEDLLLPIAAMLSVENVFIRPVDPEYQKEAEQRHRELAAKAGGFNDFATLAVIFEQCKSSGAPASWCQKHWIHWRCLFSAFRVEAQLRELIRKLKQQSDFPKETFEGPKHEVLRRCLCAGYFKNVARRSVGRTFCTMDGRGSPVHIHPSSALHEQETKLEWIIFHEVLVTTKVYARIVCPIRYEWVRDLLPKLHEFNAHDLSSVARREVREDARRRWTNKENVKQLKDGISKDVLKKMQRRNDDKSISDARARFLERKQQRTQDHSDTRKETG
UniProt Q86Y56: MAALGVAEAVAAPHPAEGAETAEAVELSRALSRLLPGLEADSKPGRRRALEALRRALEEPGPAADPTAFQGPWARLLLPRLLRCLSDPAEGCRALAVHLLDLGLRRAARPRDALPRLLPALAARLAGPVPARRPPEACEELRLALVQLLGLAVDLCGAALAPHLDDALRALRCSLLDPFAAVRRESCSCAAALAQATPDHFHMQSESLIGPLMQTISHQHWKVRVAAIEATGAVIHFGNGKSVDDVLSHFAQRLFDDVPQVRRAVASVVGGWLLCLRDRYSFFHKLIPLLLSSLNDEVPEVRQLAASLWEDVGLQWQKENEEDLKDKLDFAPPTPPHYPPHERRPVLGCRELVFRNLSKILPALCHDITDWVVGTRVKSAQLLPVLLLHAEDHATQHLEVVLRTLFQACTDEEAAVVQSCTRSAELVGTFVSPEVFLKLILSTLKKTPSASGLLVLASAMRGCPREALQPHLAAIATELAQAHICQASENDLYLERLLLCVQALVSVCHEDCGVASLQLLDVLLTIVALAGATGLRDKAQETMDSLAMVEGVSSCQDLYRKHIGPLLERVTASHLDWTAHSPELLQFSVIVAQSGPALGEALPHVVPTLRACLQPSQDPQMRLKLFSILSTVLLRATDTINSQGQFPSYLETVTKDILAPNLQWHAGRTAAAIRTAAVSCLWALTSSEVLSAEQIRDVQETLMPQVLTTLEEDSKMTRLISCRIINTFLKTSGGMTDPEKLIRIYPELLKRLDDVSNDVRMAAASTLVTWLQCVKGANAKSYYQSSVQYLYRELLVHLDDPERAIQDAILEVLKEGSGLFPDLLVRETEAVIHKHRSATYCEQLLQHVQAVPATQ
UniProt P49366: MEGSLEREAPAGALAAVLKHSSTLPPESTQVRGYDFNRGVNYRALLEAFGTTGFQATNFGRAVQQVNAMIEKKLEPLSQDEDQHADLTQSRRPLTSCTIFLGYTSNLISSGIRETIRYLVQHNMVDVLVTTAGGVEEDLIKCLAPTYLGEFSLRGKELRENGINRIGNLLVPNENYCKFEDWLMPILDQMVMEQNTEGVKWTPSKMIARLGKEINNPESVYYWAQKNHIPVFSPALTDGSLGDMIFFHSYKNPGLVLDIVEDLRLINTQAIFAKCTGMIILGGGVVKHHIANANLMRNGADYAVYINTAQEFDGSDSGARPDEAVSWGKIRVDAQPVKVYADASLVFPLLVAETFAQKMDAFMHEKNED
UniProt Q9NUI1: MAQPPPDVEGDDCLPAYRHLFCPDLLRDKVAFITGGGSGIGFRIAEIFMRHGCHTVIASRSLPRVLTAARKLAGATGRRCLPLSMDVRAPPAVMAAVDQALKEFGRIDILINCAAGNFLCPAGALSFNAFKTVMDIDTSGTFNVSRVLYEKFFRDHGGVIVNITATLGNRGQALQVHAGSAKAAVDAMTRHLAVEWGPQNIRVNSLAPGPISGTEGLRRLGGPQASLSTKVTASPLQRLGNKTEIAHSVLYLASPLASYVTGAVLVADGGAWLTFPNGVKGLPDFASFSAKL
UniProt Q08495: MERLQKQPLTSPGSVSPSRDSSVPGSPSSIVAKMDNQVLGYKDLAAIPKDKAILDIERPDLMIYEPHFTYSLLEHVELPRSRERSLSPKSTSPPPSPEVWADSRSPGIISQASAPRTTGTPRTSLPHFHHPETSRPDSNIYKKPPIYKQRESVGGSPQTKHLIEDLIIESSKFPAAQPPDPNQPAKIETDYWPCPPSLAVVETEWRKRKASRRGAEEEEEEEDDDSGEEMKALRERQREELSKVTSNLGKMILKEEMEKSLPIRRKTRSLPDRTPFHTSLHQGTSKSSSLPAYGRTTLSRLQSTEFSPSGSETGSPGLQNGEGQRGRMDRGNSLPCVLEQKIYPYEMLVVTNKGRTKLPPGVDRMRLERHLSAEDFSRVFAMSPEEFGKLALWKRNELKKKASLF

What was measured:
Assay in all cases: log2 fold change, soluble protein after heating vs DMSO (PISA); higher = thermal stabilisation; K562 cells, 10 uM, 30 min; active = over 0.2 and 3.5 SD of the protein, either way, in both replicates (recomputed)
IRAK-1-4 Inhibitor I = compound: C1COCCN1CCN2C3=CC=CC=C3N=C2NC(=O)C4=CC(=CC=C4)[N+](=O)[O-] [IRAK-1-4 Inhibitor I]
Summary of the method: (§1)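 Values are thermal stability changes relative to control samples and are taken from duplicates. They are stated as log2 fold changes. Before quantification by TMTpro 16plex LC-MS/MS with equalised channel sums, K562 cells at 2×10^6 cells/mL were treated with 10 μM compound for 30 min, heated in aliquots for 3 min across 48°C-58°C, pooled, extracted in PBS with 0.5% NP-40 at 4°C, and centrifuged at 21,000xg for 90 min to give the soluble supernatant.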

ibrutinib = compound: C=CC(=O)N1CCC[C@@H](n2nc(-c3ccc(Oc4ccccc4)cc3)c3c(N)ncnc32)C1 [ibrutinib]
Summary of the method: as §1

[1] = compound: CC(C)(O)CC(=O)NCCn1ccc2ncnc(Nc3ccc(Oc4cccc(C(F)(F)F)c4)c(Cl)c3)c21
Summary of the method: as §1

pinometostat = compound: CC(C)N(C[C@H]1O[C@@H](n2cnc3c(N)ncnc32)[C@H](O)[C@@H]1O)[C@H]1C[C@@H](CCc2nc3cc(C(C)(C)C)ccc3[nH]2)C1 [pinometostat]
Summary of the method: as §1

[2] = compound: CC1=C(C(CC(=O)N1)C2=CC=C(C=C2)C(F)(F)F)C(=O)NC3=C(C=C4C(=C3)C=NN4)F
Summary of the method: as §1

[3] = compound: CC(=O)c1cnc2ccc(-c3cc(Cl)c(O)c(Cl)c3)nc2c1N[C@H]1CC[C@H](CN(C)C)CC1
Summary of the method: as §1

ralimetinib = compound: CC(C)(C)Cn1c(N)nc2ccc(-c3[nH]c(C(C)(C)C)nc3-c3ccc(F)cc3)nc21 [ralimetinib]
Summary of the method: as §1

[4] = compound: CC(C)C1=C2N=C(C=C(N2N=C1)NCC3=CC=CC=C3)NCCCCCCN
Summary of the method: as §1

[5] = compound: CC(C)C[C@@H](C=O)NC(=O)[C@H](CC(C)C)NC(=O)[C@H](CC(C)C)NC(=O)OCc1ccccc1
Summary of the method: as §1

[6] = compound: CC1=C(C2=C(C=C1)C(=O)C3=CC=CC=C3N2CCCN)C
Summary of the method: as §1

Target: DNA2 (UniProt P51530)
- log2 fold change (IRAK-1-4 Inhibitor I): inactive: 0.03
- log2 fold change (ibrutinib): inactive: 0.09
- log2 fold change [1]: inactive: 0.017
- log2 fold change (pinometostat): inactive: 0.03
- log2 fold change [2]: inactive: 0.02

Target: DLD (UniProt P09622)
- log2 fold change (IRAK-1-4 Inhibitor I): inactive: 0.079
- log2 fold change (ibrutinib): inactive: 0.007
- log2 fold change [3]: inactive: 0.043
- log2 fold change (ralimetinib): inactive: -0.004
- log2 fold change [1]: inactive: -0.043
- log2 fold change [4]: inactive: -0.125
- log2 fold change [5]: inactive: -0.029
- log2 fold change (pinometostat): inactive: 0.001
- log2 fold change [6]: inactive: -0.008

Target: DIPK2A (UniProt Q8NDZ4)
- log2 fold change (IRAK-1-4 Inhibitor I): inactive: 0.072
- log2 fold change (ibrutinib): inactive: -0.161
- log2 fold change [3]: inactive: -0.066
- log2 fold change (ralimetinib): inactive: 0.014
- log2 fold change [4]: inactive: -0.02
- log2 fold change [5]: inactive: -0.016
- log2 fold change (pinometostat): inactive: 0.002
- log2 fold change [2]: inactive: 0.25
- log2 fold change [6]: inactive: -0.129

Target: DHRSX (UniProt Q8N5I4)
- log2 fold change (IRAK-1-4 Inhibitor I): inactive: 0.037
- log2 fold change (ibrutinib): inactive: 0.037
- log2 fold change [3]: inactive: -0.011
- log2 fold change [4]: inactive: 0.116
- log2 fold change (pinometostat): inactive: 0.056
- log2 fold change [2]: inactive: 0.116

Target: DDX5 (UniProt P17844)
- log2 fold change (IRAK-1-4 Inhibitor I): inactive: -0.114
- log2 fold change (ibrutinib): inactive: 0.002
- log2 fold change [3]: active: -0.358
- log2 fold change (ralimetinib): inactive: -0.024
- log2 fold change [1]: inactive: -0.189
- log2 fold change [4]: inactive: -0.12
- log2 fold change [5]: inactive: 0.069
- log2 fold change (pinometostat): inactive: 0.017
- log2 fold change [6]: inactive: 0.072

Target: DHCR7 (UniProt Q9UBM7)
- log2 fold change (IRAK-1-4 Inhibitor I): inactive: -0.045
- log2 fold change (ibrutinib): inactive: -0.091
- log2 fold change [3]: inactive: -0.085
- log2 fold change (ralimetinib): inactive: 0.056
- log2 fold change [1]: inactive: 0.067
- log2 fold change [4]: inactive: -0.021
- log2 fold change [5]: inactive: 0.011
- log2 fold change (pinometostat): inactive: 0.199
- log2 fold change [6]: inactive: 0.15

Target: DNAH10 (UniProt Q8IVF4)
- log2 fold change (IRAK-1-4 Inhibitor I): inactive: 0.004
- log2 fold change (ibrutinib): inactive: 0.018
- log2 fold change [1]: inactive: -0.127
- log2 fold change [4]: inactive: 0.162
- log2 fold change (pinometostat): inactive: -0.106
- log2 fold change [6]: inactive: -0.022

Target: DMXL1 (UniProt Q9Y485)
- log2 fold change (IRAK-1-4 Inhibitor I): inactive: -0.005
- log2 fold change (ibrutinib): inactive: 0.002
- log2 fold change [3]: inactive: -0.035
- log2 fold change (ralimetinib): inactive: 0.028
- log2 fold change [1]: inactive: -0.085
- log2 fold change [4]: inactive: -0.231
- log2 fold change [5]: inactive: 0.019
- log2 fold change (pinometostat): inactive: 0.042
- log2 fold change [6]: inactive: 0.069

Target: DDX39A (UniProt O00148)
- log2 fold change (IRAK-1-4 Inhibitor I): inactive: -0.034
- log2 fold change (ibrutinib): inactive: 0.099
- log2 fold change [3]: inactive: -0.224
- log2 fold change (ralimetinib): inactive: 0.003
- log2 fold change [1]: inactive: -0.142
- log2 fold change [4]: active: -0.327
- log2 fold change [5]: inactive: 0.042
- log2 fold change (pinometostat): inactive: 0.075
- log2 fold change [6]: inactive: -0.28

Target: DFFA isoform 2 (UniProt O00273)
- log2 fold change (IRAK-1-4 Inhibitor I): inactive: -0.041
- log2 fold change (ibrutinib): inactive: -0.032
- log2 fold change [1]: inactive: 0.058
- log2 fold change [4]: inactive: 0.005
- log2 fold change (pinometostat): inactive: -0.11
- log2 fold change [2]: inactive: 0.042

Target: DDX25 (UniProt Q9UHL0)
- log2 fold change (IRAK-1-4 Inhibitor I): inactive: -0.12
- log2 fold change (ibrutinib): inactive: -0.078
- log2 fold change [3]: inactive: 0.16
- log2 fold change (pinometostat): inactive: 0.135
- log2 fold change [2]: inactive: -0.077
- log2 fold change [6]: inactive: -0.114

Target: DDX52 (UniProt Q9Y2R4)
- log2 fold change (IRAK-1-4 Inhibitor I): inactive: -0.086
- log2 fold change (ibrutinib): inactive: -0.219
- log2 fold change (ralimetinib): inactive: -0.002
- log2 fold change [5]: inactive: 0.141
- log2 fold change (pinometostat): inactive: 0.544

Target: DHRS7B (UniProt Q6IAN0)
- log2 fold change (IRAK-1-4 Inhibitor I): inactive: 0.027
- log2 fold change (ibrutinib): inactive: -0.017
- log2 fold change [3]: inactive: -0.063
- log2 fold change (ralimetinib): inactive: 0.23
- log2 fold change [1]: inactive: 0.055
- log2 fold change [4]: inactive: 0.115
- log2 fold change [5]: inactive: -0.113
- log2 fold change (pinometostat): inactive: -0.055
- log2 fold change [6]: inactive: -0.003

Target: DDX46 (UniProt Q7L014)
- log2 fold change (IRAK-1-4 Inhibitor I): inactive: -0.113
- log2 fold change (ibrutinib): inactive: -0.034
- log2 fold change [3]: inactive: -0.299
- log2 fold change (ralimetinib): inactive: -0.095
- log2 fold change [1]: inactive: -0.18
- log2 fold change [4]: inactive: -0.034
- log2 fold change [5]: inactive: 0.026
- log2 fold change (pinometostat): inactive: -0.066
- log2 fold change [6]: inactive: 0.152

Target: DGKE (UniProt P52429)
- log2 fold change (IRAK-1-4 Inhibitor I): inactive: -0.039
- log2 fold change (ibrutinib): inactive: -0.361
- log2 fold change [3]: inactive: -0.012
- log2 fold change [4]: inactive: -0.245
- log2 fold change (pinometostat): inactive: -0.06
- log2 fold change [2]: inactive: -0.114
- log2 fold change [6]: inactive: 0.188

Target: DERL2 (UniProt Q9GZP9)
- log2 fold change (IRAK-1-4 Inhibitor I): inactive: 0.062
- log2 fold change (ibrutinib): inactive: -0.045
- log2 fold change [3]: inactive: -0.143
- log2 fold change (ralimetinib): inactive: -0.081
- log2 fold change [1]: inactive: -0.043
- log2 fold change [5]: inactive: 0.055
- log2 fold change (pinometostat): inactive: -0.165
- log2 fold change [2]: inactive: 0.002
- log2 fold change [6]: inactive: 0.048

Target: DHX40 (UniProt Q8IX18)
- log2 fold change (IRAK-1-4 Inhibitor I): inactive: 0.047
- log2 fold change (ibrutinib): inactive: -0.04
- log2 fold change [3]: inactive: -0.069
- log2 fold change (ralimetinib): inactive: -0.036
- log2 fold change [1]: inactive: -0.07
- log2 fold change [4]: inactive: -0.075
- log2 fold change [5]: inactive: -0.038
- log2 fold change (pinometostat): inactive: 0.047
- log2 fold change [6]: inactive: 0.096

Target: DERPC (UniProt P0CG12)
- log2 fold change (IRAK-1-4 Inhibitor I): inactive: -0.077
- log2 fold change (ibrutinib): inactive: 0.004
- log2 fold change (ralimetinib): inactive: 0.017
- log2 fold change [4]: inactive: -0.003
- log2 fold change [5]: inactive: -0.029
- log2 fold change (pinometostat): inactive: 0.161

Target: DDHD1 (UniProt Q8NEL9)
- log2 fold change (IRAK-1-4 Inhibitor I): inactive: -0.068
- log2 fold change (ibrutinib): inactive: 0.037
- log2 fold change (ralimetinib): inactive: -0.012
- log2 fold change [4]: inactive: -0.03
- log2 fold change [5]: inactive: 0.063
- log2 fold change (pinometostat): inactive: -0.118

Target: DENND4A isoform 2 (UniProt Q7Z401)
- log2 fold change (IRAK-1-4 Inhibitor I): inactive: 0.081
- log2 fold change (ibrutinib): inactive: -0.048
- log2 fold change [3]: inactive: -0.275
- log2 fold change (ralimetinib): inactive: 0.037
- log2 fold change [1]: inactive: -0.026
- log2 fold change [5]: inactive: 0.055
- log2 fold change (pinometostat): inactive: 0.085
- log2 fold change [2]: inactive: 0.097
- log2 fold change [6]: inactive: -0.036

Target: DNAH5 (UniProt Q8TE73)
- log2 fold change (IRAK-1-4 Inhibitor I): inactive: 0.074
- log2 fold change (ibrutinib): inactive: 0.039
- log2 fold change (ralimetinib): inactive: 0.004
- log2 fold change [1]: inactive: 0.031
- log2 fold change [4]: inactive: -0.09
- log2 fold change [5]: inactive: 0.009
- log2 fold change (pinometostat): inactive: 0.055
- log2 fold change [6]: inactive: 0.106

Target: DNAAF5 (UniProt Q86Y56)
- log2 fold change (IRAK-1-4 Inhibitor I): inactive: -0.095
- log2 fold change (ibrutinib): inactive: 0.027
- log2 fold change [3]: inactive: 0.161
- log2 fold change (ralimetinib): inactive: 0.268
- log2 fold change [1]: inactive: 0.113
- log2 fold change [5]: inactive: 0.268
- log2 fold change (pinometostat): inactive: 0.457
- log2 fold change [6]: inactive: -0.159

Target: DHX16 (UniProt O60231)
- log2 fold change (IRAK-1-4 Inhibitor I): inactive: -0.006
- log2 fold change (ibrutinib): inactive: 0
- log2 fold change [3]: active: -0.257
- log2 fold change (ralimetinib): inactive: -0.001
- log2 fold change [1]: inactive: -0.025
- log2 fold change [4]: inactive: -0.002
- log2 fold change [5]: inactive: 0.009
- log2 fold change (pinometostat): inactive: 0.004
- log2 fold change [6]: inactive: 0.159

Target: DESI2 (UniProt Q9BSY9)
- log2 fold change (IRAK-1-4 Inhibitor I): inactive: -0.038
- log2 fold change (ibrutinib): inactive: 0.048
- log2 fold change [4]: inactive: 0.203
- log2 fold change (pinometostat): inactive: -0.013
- log2 fold change [2]: inactive: -0.196
- log2 fold change [6]: inactive: -0.01

Target: DHPS (UniProt P49366)
- log2 fold change (IRAK-1-4 Inhibitor I): inactive: 0.011
- log2 fold change (ibrutinib): inactive: -0.004
- log2 fold change [3]: inactive: 0.02
- log2 fold change (ralimetinib): inactive: -0.04
- log2 fold change [1]: inactive: -0.043
- log2 fold change [4]: inactive: 0.047
- log2 fold change [5]: inactive: -0.012
- log2 fold change (pinometostat): inactive: -0.095
- log2 fold change [6]: inactive: -0.027

Target: DECR2 (UniProt Q9NUI1)
- log2 fold change (IRAK-1-4 Inhibitor I): inactive: 0.103
- log2 fold change (ibrutinib): inactive: 0.016
- log2 fold change [3]: inactive: -0.065
- log2 fold change [1]: inactive: -0.08
- log2 fold change [4]: inactive: -0.062
- log2 fold change (pinometostat): inactive: -0.027
- log2 fold change [2]: inactive: -0.001
- log2 fold change [6]: inactive: 0.08

Target: DMTN isoform 2 (UniProt Q08495)
- log2 fold change (IRAK-1-4 Inhibitor I): inactive: 0.152
- log2 fold change (ibrutinib): inactive: 0.201
- log2 fold change (ralimetinib): inactive: 0.02
- log2 fold change [5]: inactive: -0.133
- log2 fold change (pinometostat): inactive: 0.057
- log2 fold change [2]: inactive: -0.028
- log2 fold change [6]: inactive: 0.077
